The source of these data is PMC5067540.

Amino acid sequences for entries named in this document (tags omitted). Residues count along the entry.
UniProt P70206, residues 28-1894: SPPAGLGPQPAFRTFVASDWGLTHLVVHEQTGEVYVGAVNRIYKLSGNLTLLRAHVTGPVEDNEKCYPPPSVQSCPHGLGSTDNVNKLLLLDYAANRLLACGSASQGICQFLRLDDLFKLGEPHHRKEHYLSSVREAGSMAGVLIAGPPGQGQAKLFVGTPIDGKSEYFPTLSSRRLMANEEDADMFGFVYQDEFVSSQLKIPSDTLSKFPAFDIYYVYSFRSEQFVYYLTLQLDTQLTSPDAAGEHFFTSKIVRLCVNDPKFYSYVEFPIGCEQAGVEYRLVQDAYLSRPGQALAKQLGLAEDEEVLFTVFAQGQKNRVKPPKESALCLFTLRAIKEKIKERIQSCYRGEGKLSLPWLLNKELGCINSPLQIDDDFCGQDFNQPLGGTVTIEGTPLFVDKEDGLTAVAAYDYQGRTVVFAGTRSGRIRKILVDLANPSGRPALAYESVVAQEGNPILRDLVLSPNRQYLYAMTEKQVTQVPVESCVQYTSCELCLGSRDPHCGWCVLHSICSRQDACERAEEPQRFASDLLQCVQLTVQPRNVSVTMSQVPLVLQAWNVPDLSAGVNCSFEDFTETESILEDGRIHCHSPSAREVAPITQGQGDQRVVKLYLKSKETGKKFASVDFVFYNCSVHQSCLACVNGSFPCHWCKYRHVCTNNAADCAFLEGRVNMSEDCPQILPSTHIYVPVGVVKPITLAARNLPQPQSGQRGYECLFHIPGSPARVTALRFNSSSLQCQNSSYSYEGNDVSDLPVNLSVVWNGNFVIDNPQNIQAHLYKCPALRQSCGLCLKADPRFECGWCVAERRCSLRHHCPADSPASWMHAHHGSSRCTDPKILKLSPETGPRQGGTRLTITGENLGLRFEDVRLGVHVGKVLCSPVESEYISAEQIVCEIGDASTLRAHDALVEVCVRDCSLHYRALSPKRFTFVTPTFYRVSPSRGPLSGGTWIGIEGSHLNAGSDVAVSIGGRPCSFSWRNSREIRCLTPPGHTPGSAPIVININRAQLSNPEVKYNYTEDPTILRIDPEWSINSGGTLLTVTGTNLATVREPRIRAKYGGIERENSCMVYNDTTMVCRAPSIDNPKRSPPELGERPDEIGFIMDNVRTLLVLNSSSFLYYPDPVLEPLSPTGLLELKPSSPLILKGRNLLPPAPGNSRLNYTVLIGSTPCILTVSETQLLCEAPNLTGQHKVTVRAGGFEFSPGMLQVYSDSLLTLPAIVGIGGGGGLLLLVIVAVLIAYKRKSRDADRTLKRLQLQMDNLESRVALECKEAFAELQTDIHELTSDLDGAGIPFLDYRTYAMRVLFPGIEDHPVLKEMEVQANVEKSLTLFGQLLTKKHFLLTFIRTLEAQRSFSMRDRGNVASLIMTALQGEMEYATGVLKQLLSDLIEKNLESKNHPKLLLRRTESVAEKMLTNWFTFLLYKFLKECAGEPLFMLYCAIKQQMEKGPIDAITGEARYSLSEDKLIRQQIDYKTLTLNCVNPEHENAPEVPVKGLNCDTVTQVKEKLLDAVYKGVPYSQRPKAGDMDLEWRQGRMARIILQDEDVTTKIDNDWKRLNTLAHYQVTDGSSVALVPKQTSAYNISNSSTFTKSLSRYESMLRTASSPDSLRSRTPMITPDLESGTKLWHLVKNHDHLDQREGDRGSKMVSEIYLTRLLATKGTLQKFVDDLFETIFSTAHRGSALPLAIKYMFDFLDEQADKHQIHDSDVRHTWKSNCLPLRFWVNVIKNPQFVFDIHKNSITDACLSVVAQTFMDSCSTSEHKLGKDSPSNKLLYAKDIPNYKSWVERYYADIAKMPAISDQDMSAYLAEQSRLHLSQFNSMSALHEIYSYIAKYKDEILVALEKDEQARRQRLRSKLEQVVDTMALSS
UniProt O54885, residues 22-114: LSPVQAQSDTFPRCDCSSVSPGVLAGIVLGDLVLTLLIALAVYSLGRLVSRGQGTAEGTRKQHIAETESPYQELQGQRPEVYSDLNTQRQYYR

These are yes or no findings as the source states them, for the method shown. Binding seen in cells or lysates may run through a third protein. Some entries that bind do so weakly or less than the wild type.

The target in test [1] is plexinA1 (mouse (endogenous in BMSC and RAW264.7)) (UniProt P70206). In words: co-IP; RAW264.7 cells treated with RANKL for 4 days with OS, wedelolactone, BMSC conditioned media (CM1) or wedelolactone-treated 9-day conditioned media (CM2); RIPA lysate; PlexinA1 antibody overnight at 4°C, protein A or G agarose; Western blot. In general terms: A western blot detects proteins with antibodies after separation by electrophoresis.

For test [2] the target is unchanged. Description: co-IP; mouse BMSC treated with or without 2 μg/ml wedelolactone (and Sema3A antibody) for 9 days; RIPA lysate; PlexinA1 antibody overnight at 4°C, protein A or G agarose; Western blot.

As for “DNAX-activating protein 12 (DAP12) (from UniProt O54885 22-114)”, the binding entry in test [1] is on record as “binds”.

Take “neuropilin (NRP)1 (from UniProt P97333 22-923) (receptor)”: the binding entry in test [1] and in test [2] was “binds” in each case.

B1: semaphorin 3A (Sema3A) (ligand, UniProt O08665 21-772)
chain: NYANGKNNVPRLKLSYKEMLESNNVITFNGLANSSSYHTFLLDEERSRLYVGAKDHIFSFNLVNIKDFQKIVWPVSYTRRDECKWAGKDILKECANFIKVLEAYNQTHLYACGTGAFHPICTYIEVGHHPEDNIFKLQDSHFENGRGKSPYDPKLLTASLLIDGELYSGTAADFMGRDFAIFRTLGHHHPIRTEQHDSRWLNDPRFISAHLIPESDNPEDDKVYFFFRENAIDGEHSGKATHARIGQICKNDFGGHRSLVNKWTTFLKARLICSVPGPNGIDTHFDELQDVFLMNSKDPKNPIVYGVFTTSSNIFKGSAVCMYSMSDVRRVFLGPYAHRDGPNYQWVPYQGRVPYPRPGTCPSKTFGGFDSTKDLPDDVITFARSHPAMYNPVFPINNRPIMIKTDVNYQFTQIVVDRVDAEDGQYDVMFIGTDVGTVLKVVSVPKETWHDLEEILLEEMTVFREPTTISAMELSTKQQQLYIGSTAGVAQLPLHRCDIYGKACAECCLARDPYCAWDGSSCSRYFPTAKRRTRRQDIRNGDPLTHCSDLQHHDNHHGPSLEERIIYGVENSSTFLECSPKSQRALVYWQFQRRNEDRKEEIRMGDHIIRTEQGLLLRSLQKKDSGNYLCHAVEHGFMQTLLKVTLEVIDTEHLEELLHKDDDGDGSKIKEMSSSMTPSQKVWYRDFMQLINHPNLNTMDEFCEQVWKRDRKQRRQRPGHSQGSSNKWKHMQESKKGRNRRTHEFERAPRSV
On to B1, for which the binding result in test [2] is “binds”.
